Laboratory results: PMC6465247

Amino acid sequences for entries named in this document (tags omitted). A change or cut given only in a name is not applied to a line headed by its entry.
UniProt B6EUB3: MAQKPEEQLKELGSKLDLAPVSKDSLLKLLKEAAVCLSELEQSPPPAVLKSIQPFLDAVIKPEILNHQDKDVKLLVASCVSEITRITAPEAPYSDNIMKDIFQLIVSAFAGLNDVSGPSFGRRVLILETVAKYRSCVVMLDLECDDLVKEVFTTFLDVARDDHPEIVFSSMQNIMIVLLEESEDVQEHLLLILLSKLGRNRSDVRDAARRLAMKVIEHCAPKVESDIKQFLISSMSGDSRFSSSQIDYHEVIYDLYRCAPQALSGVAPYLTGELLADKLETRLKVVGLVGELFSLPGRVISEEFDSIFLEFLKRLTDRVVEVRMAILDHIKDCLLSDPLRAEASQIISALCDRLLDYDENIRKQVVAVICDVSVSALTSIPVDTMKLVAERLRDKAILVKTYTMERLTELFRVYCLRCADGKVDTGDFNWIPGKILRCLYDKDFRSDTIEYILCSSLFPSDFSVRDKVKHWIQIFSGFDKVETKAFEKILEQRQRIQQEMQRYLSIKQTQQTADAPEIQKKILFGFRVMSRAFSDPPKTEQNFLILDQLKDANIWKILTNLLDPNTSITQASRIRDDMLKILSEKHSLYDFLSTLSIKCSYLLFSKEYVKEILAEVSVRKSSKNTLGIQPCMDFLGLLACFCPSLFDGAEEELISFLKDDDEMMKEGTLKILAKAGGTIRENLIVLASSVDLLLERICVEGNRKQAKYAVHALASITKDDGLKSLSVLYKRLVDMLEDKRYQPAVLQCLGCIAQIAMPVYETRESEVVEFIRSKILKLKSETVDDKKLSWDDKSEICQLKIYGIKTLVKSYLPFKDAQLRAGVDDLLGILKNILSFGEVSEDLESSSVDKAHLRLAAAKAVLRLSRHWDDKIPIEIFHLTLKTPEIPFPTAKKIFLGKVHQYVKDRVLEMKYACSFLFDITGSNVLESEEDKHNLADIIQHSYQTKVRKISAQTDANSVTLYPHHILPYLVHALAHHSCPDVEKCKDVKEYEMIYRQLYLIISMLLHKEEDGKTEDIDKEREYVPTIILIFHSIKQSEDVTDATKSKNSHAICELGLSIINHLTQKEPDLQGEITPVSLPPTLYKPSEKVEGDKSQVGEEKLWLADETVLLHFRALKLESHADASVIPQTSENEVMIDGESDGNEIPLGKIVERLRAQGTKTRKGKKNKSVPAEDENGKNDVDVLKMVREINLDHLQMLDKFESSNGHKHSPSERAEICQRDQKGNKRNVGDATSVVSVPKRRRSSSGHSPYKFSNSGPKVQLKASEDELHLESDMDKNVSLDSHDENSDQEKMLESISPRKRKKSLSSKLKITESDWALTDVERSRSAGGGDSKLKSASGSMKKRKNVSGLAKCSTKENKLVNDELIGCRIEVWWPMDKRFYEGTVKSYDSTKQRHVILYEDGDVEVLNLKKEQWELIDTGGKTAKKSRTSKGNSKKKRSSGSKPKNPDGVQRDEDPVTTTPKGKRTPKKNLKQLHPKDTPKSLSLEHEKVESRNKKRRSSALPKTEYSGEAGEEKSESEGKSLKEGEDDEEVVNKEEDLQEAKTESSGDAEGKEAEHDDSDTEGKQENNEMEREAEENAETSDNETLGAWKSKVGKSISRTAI
UniProt Q53KW9: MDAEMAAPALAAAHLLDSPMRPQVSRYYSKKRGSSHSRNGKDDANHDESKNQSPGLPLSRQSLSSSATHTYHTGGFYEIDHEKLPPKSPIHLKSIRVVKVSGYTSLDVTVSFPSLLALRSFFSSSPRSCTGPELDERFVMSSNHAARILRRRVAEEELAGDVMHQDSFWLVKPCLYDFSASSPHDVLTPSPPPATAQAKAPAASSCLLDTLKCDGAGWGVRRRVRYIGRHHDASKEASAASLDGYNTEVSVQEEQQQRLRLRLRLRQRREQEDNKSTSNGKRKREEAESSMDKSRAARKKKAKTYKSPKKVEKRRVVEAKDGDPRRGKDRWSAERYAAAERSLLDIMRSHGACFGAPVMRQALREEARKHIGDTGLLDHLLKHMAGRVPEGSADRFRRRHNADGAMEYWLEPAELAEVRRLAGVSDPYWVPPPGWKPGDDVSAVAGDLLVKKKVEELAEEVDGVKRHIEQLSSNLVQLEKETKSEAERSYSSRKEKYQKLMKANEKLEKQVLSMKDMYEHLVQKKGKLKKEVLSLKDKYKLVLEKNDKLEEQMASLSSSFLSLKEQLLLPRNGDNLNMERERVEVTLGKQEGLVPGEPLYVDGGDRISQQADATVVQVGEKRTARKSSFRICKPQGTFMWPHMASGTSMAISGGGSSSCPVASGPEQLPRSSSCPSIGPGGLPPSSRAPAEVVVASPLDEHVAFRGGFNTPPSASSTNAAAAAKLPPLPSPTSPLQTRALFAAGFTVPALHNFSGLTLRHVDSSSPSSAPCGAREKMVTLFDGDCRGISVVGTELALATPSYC

Key:
[1] = molecular target: Arabidopsis PDS5A, yeast two-hybrid fusion used with the AM1 homologs (Arabidopsis thaliana) (UniProt B6EUB3); experiment: two-hybrid; Matchmaker Gold system (Clontech), pGADT7-GW and pGBKT7-GW fusions co-transformed into yeast AH109; growth on SD/-Leu -Trp -His
[2] = molecular target: C-terminus of PDS5A, BiFC fusion (Arabidopsis thaliana); experiment: split reporter; BiFC and ratiometric BiFC (pBiFC-2in1-NN, YFP against RFP as reference) in tobacco leaves after Agrobacterium infiltration; imaged 2 days after infiltration
[3] = molecular target: N-terminus of PDS5A, BiFC fusion (Arabidopsis thaliana); experiment: as above
[4] = molecular target: PDS5A, BiFC fusion (Arabidopsis thaliana) (UniProt B6EUB3); experiment: as above
[5] = molecular target: PDS5A, BiFC fusion (Arabidopsis thaliana) (UniProt B6EUB3); experiment: split reporter; competitive BiFC in tobacco leaf cells: pBiFC-2in1-NN pair co-infiltrated with SWI1-mTurquiose2 or WAPL1-mTurquiose2 (35S promoter)
[6] = molecular target: PDS5A^810-1607, yeast two-hybrid fusion (Arabidopsis thaliana) (UniProt B6EUB3); experiment: two-hybrid; Matchmaker Gold system (Clontech), pGADT7-GW and pGBKT7-GW fusions co-transformed into yeast AH109; growth on SD/-Leu -Trp -His

Molecule: AMEIOTIC 1 of rice (OsAM1), yeast two-hybrid fusion (from UniProt Q53KW9)
binding [1]: binds

B3: SWI1, BiFC fusion (protein, UniProt Q9FGN8 1-639)
chain: MSSTMFVKRNPIRETTAGKISSPSSPTLNVAVAHIRAGSYYEIDASILPQRSPENLKSIRVVMVSKITASDVSLRYPSMFSLRSHFDYSRMNRNKPMKKRSGGGLLPVFDESHVMASELAGDLLYRRIAPHELSMNRNSWGFWVSSSSRRNKFPRREVVSQPAYNTRLCRAASPEGKCSSELKSGGMIKWGRRLRVQYQSRHIDTRKNKEGEESSRVKDEVYKEEEMEKEEDDDDGNEIGGTKQEAKEITNGNRKRKLIESSTERLAQKAKVYDQKKETQIVVYKRKSERKFIDRWSVERYKLAERNMLKVMKEKNAVFGNSILRPELRSEARKLIGDTGLLDHLLKHMAGKVAPGGQDRFMRKHNADGAMEYWLESSDLIHIRKEAGVKDPYWTPPPGWKLGDNPSQDPVCAGEIRDIREELASLKRELKKLASKKEEEELVIMTTPNSCVTSQNDNLMTPAKEIYADLLKKKYKIEDQLVIIGETLRKMEEDMGWLKKTVDENYPKKPDSTETPLLLEDSPPIQTLEGEVKVVNKGNQITESPQNREKGRKHDQQERSPLSLISNTGFRICRPVGMFAWPQLPALAAATDTNASSPSHRQAYPSPFPVKPLAAKRPLGLTFPFTIIPEEAPKNLFNV
binding [4]: binds
binding [5]: binds

B5: SWI1-mTurquiose2 (protein, UniProt Q9FGN8 1-639)
chain: MSSTMFVKRNPIRETTAGKISSPSSPTLNVAVAHIRAGSYYEIDASILPQRSPENLKSIRVVMVSKITASDVSLRYPSMFSLRSHFDYSRMNRNKPMKKRSGGGLLPVFDESHVMASELAGDLLYRRIAPHELSMNRNSWGFWVSSSSRRNKFPRREVVSQPAYNTRLCRAASPEGKCSSELKSGGMIKWGRRLRVQYQSRHIDTRKNKEGEESSRVKDEVYKEEEMEKEEDDDDGNEIGGTKQEAKEITNGNRKRKLIESSTERLAQKAKVYDQKKETQIVVYKRKSERKFIDRWSVERYKLAERNMLKVMKEKNAVFGNSILRPELRSEARKLIGDTGLLDHLLKHMAGKVAPGGQDRFMRKHNADGAMEYWLESSDLIHIRKEAGVKDPYWTPPPGWKLGDNPSQDPVCAGEIRDIREELASLKRELKKLASKKEEEELVIMTTPNSCVTSQNDNLMTPAKEIYADLLKKKYKIEDQLVIIGETLRKMEEDMGWLKKTVDENYPKKPDSTETPLLLEDSPPIQTLEGEVKVVNKGNQITESPQNREKGRKHDQQERSPLSLISNTGFRICRPVGMFAWPQLPALAAATDTNASSPSHRQAYPSPFPVKPLAAKRPLGLTFPFTIIPEEAPKNLFNV
binding [5]: binds

B6: AMEIOTIC 1 of maize (ZmAM1), yeast two-hybrid fusion (protein, UniProt C0RWW9 1-780)
chain: MDVETVQAGPALAAHLQLQASPKPQVKKYYFKKKTSSSHSRNGKDDVNHDSTIQPRSPLSRQSLTFDAIPTYHAGAFYEIDHDKLPPKSPIHLKSIRVVKVSECTNLDITVKFPSLQALRSFFSSYPAPGTGPELDERFVMSSNHAARILRRRVTEEELEGEVQQDSFWLIKPRLYDFAAPQQVPSRTLCLPPPPAPPAATLGLTADSCLLTTLKCDGAGWGMRRRVRYIGRHRDEAPKEASVDGYDTESSVREVQQPPATQEVKRSERNCKRKREAEASSKDNNGDEGKKNNKVQGASKKISKKAKKRTVESKDGDPRHGKDRWSAERYAAAEKSLLNIMRSRDARFGAPVMRQVLREEARKHIGDTGLLDHLLKHMAGRVPEGSVHRFRRRHNADGAMEYWLEPAELAEVRKQAGVSDPYWVPPPGWKPGDDVSLVAGDILVKRQVEELTEEVNGVKRQMEQLLCKDDGDFGAERDYSSLKEKYQRAVRANEKLEKQVLCLKDMCENVVQMNGELKKEVSAFKEKYEHIADKNDKLEEQVTYLSSSFLSFKDQLVVALKLELAPSEAVPRTALFVASGEQMTGTVIQGGQDRAERKSSFRVCKPQGKFLLPSMASGMTIGRGASSTCPAAATPGPGIPRSTSFPSMPGLPRSSRGPVEVVAAASGLDEHVMFGAHFSTPPSASSTNDAAKLQLSLPSPRSPLQPQKLFDTVTAAASGFSPQKLMHFSGLTRRDVDTSSSSSGACGSGLLEGKRVLFDADAGGISAVGTELALATPSYC
binding [1]: binds

Further lines, results first:

binding [2]: no binding
binding [3]: binds
binding [4]: binds
binding [5]: binds
B1: WAPL1, BiFC fusion (protein, UniProt F4I7C7 1-930)
chain: MIIVKLTANRICCSLLQLRRSYEHFYIFVFLPEIPLFRFSHLKLFPKNLQIQRLVSAMMERTYGRRKPGIPRTLSDSLNDSVSQTEYLSSSSSPDIEPIDYSLLPFSSQESSSLWHSSSRSNFREDYPQNGGVVRRAKRVRNGAEAAAFTSTLLEAQEFGELMEHEDEVNFALDGLRKGHQLRIRRASLSSLLSICASQHQRRSLRAQGISQSIIDAILVLSLDDIPSNLAAATLFFALTADGQDEHFMESPKCIKFLIKLLKPVIVTSTEGKPRNIGFKLLSLLKDVDAARDPVKMDDPSSSDILSRVQELLVNCKEMRLNDSYITETTRPELSTKWVALLAMERACVSKISFDDTSGSVKKTGGNFKEKLRELGGLDAVLEVVMDCHAVMERWVEYDALSVQEKKDNLHKQSLMLLLKCLKIMENATFLSTDNQNHLLGFKKCLGSHDSRMSFTELTISVIKMLSGLHLRGGFSSPNTNNVNSHYSNGGNHDSVLEANRKVTNEVVTISSDTYSTVGSISTRNGSVSQRSQSIIHLDFSPTSMSGSQSSVSGNEPTTSKTRVGSTISGSFAGRLASLGSDIARTTLRTTQAGEPICKKFGEFAPPEESEDPFAFDLEDYKPSKWAVVSVNQKKSRAQKKKGCYKQSKDESLYQLFSSQEESSNHRLNSQEESSNRDCSTSLQPSHCTNDIDEECLCLLFDCLLTAVKVLMNLTNDNVVGCRQVGGCRGLESMAELIARHFPSFTRSQLFSEMEKTGSSHQKKDKYLTDQELDFLVAILGLLVNLVERDGVNRSRLASASVPITKPEELQESEQEMIPLLCSIFLTNQGSAETKEETTTFTLDDEEAVLEGEKEAEKMIVEAYSALLLAFLSTESRSIRNSIKDYLPKRNLAILVPVLERFVAFHMTLNMIPPETHKAVMGVIESCKSP

binding [6]: no binding
B2: WINGS APART-LIKE 1 (WAPL1), yeast two-hybrid fusion (protein, UniProt F4I7C7 1-930)
chain: MIIVKLTANRICCSLLQLRRSYEHFYIFVFLPEIPLFRFSHLKLFPKNLQIQRLVSAMMERTYGRRKPGIPRTLSDSLNDSVSQTEYLSSSSSPDIEPIDYSLLPFSSQESSSLWHSSSRSNFREDYPQNGGVVRRAKRVRNGAEAAAFTSTLLEAQEFGELMEHEDEVNFALDGLRKGHQLRIRRASLSSLLSICASQHQRRSLRAQGISQSIIDAILVLSLDDIPSNLAAATLFFALTADGQDEHFMESPKCIKFLIKLLKPVIVTSTEGKPRNIGFKLLSLLKDVDAARDPVKMDDPSSSDILSRVQELLVNCKEMRLNDSYITETTRPELSTKWVALLAMERACVSKISFDDTSGSVKKTGGNFKEKLRELGGLDAVLEVVMDCHAVMERWVEYDALSVQEKKDNLHKQSLMLLLKCLKIMENATFLSTDNQNHLLGFKKCLGSHDSRMSFTELTISVIKMLSGLHLRGGFSSPNTNNVNSHYSNGGNHDSVLEANRKVTNEVVTISSDTYSTVGSISTRNGSVSQRSQSIIHLDFSPTSMSGSQSSVSGNEPTTSKTRVGSTISGSFAGRLASLGSDIARTTLRTTQAGEPICKKFGEFAPPEESEDPFAFDLEDYKPSKWAVVSVNQKKSRAQKKKGCYKQSKDESLYQLFSSQEESSNHRLNSQEESSNRDCSTSLQPSHCTNDIDEECLCLLFDCLLTAVKVLMNLTNDNVVGCRQVGGCRGLESMAELIARHFPSFTRSQLFSEMEKTGSSHQKKDKYLTDQELDFLVAILGLLVNLVERDGVNRSRLASASVPITKPEELQESEQEMIPLLCSIFLTNQGSAETKEETTTFTLDDEEAVLEGEKEAEKMIVEAYSALLLAFLSTESRSIRNSIKDYLPKRNLAILVPVLERFVAFHMTLNMIPPETHKAVMGVIESCKSP

binding [6]: no binding
B4: SWITCH 1/DYAD (SWI1), yeast two-hybrid fusion (protein, UniProt Q9FGN8 1-639)
chain: MSSTMFVKRNPIRETTAGKISSPSSPTLNVAVAHIRAGSYYEIDASILPQRSPENLKSIRVVMVSKITASDVSLRYPSMFSLRSHFDYSRMNRNKPMKKRSGGGLLPVFDESHVMASELAGDLLYRRIAPHELSMNRNSWGFWVSSSSRRNKFPRREVVSQPAYNTRLCRAASPEGKCSSELKSGGMIKWGRRLRVQYQSRHIDTRKNKEGEESSRVKDEVYKEEEMEKEEDDDDGNEIGGTKQEAKEITNGNRKRKLIESSTERLAQKAKVYDQKKETQIVVYKRKSERKFIDRWSVERYKLAERNMLKVMKEKNAVFGNSILRPELRSEARKLIGDTGLLDHLLKHMAGKVAPGGQDRFMRKHNADGAMEYWLESSDLIHIRKEAGVKDPYWTPPPGWKLGDNPSQDPVCAGEIRDIREELASLKRELKKLASKKEEEELVIMTTPNSCVTSQNDNLMTPAKEIYADLLKKKYKIEDQLVIIGETLRKMEEDMGWLKKTVDENYPKKPDSTETPLLLEDSPPIQTLEGEVKVVNKGNQITESPQNREKGRKHDQQERSPLSLISNTGFRICRPVGMFAWPQLPALAAATDTNASSPSHRQAYPSPFPVKPLAAKRPLGLTFPFTIIPEEAPKNLFNV

Results are given in words; binding and its absence hold for the method and conditions named. For some assays here: Binding can be weak; no strength is given. Sequences can lack the tags named with a protein. For some assays here: Binding seen in cells or lysates may run through a third protein. Each block holds one molecule with its values, some of them ahead of it.
